{"source": "paper PMC9144814", "key": {"[1]": {"biological_target": "LOV domain of WC-1 from N. crassa (component of the FUN-LOV optogenetic switch) (N. crassa) (UniProt Q01371)", "assay": "two-hybrid; Gal4-DBD fusions (BcWCL1 variants) and Gal4-AD fusions (BcWCL2 variants) in S. cerevisiae BY4741 gal4∆ gal80∆; destabilized luciferase reporter under P5XGAL1; luminescence every 10 min for 24 h at 30 °C; constant darkness (DD)"}, "[2]": {"biological_target": "LOV domain of WC-1 from N. crassa (component of the FUN-LOV optogenetic switch) (N. crassa) (UniProt Q01371)", "assay": "two-hybrid; Gal4-DBD fusions (BcWCL1 variants) and Gal4-AD fusions (BcWCL2 variants) in S. cerevisiae BY4741 gal4∆ gal80∆; destabilized luciferase reporter under P5XGAL1; luminescence over 24 h at 30 °C; constant blue light (BL), 466 nm, 20 µmol m^2 s^−1"}, "[3]": {"biological_target": "LOV domain of WC-1 from N. crassa (component of the FUN-LOV optogenetic switch) (N. crassa) (UniProt Q01371)", "assay": "two-hybrid; Gal4-DBD fusions (BcWCL1 variants) and Gal4-AD fusions (BcWCL2 variants) in S. cerevisiae BY4741 gal4∆ gal80∆; destabilized luciferase reporter under P5XGAL1; luminescence over 24 h at 30 °C; single blue-light pulse (BLP) of 2 h, 466 nm, 20 µmol m^2 s^−1"}}, "note": "Results are given in words; binding and its absence hold for the method and conditions named. For part of these data: A result given as binding can be weak or reduced; the word gives no strength."}
{"substance": "Photoreceptor VVD (VIVID) from N. crassa (component of the FUN-LOV optogenetic switch) (from UniProt Q9C3Y6 1-186)", "values": [{"measurement": "binding", "setting": "[1]", "value": "no binding (only constant darkness (DD))"}, {"measurement": "binding", "setting": "[2]", "value": "binds"}, {"measurement": "binding", "setting": "[3]", "value": "binds"}]}
